In patent US4041022A, “Process for the manufacture of thyrocalcitonin” (Ciba-Geigy Corporation, priority 1967, dated 1977):
Part of at least one peptide drawing is inferred or uncertain, most often the ends. Positions of bridges follow the written chain, without caps; N, C: chain ends. Non-standard residues stand in square brackets, D forms with d. Residues, ends and D or L forms follow the SMILES beside them. No end group written: not given here. Met(O) = CS(=O)CC[C@H](N)C(=O)O

Legend:
[1] = system: mouse embryo bones in tissue cultures; experiment: growth of mouse embryo bones in tissue cultures; assay type: cell-based
[2] = thyrocalcitonin activity in MRC units, determined according to Kumar et al.; fractions biotested in animal experiments; assay type: in vivo; conditions: for specific activity: chromatographically and electrophoretically unitary peptides; for biological activity: trypsin degradation fractions
[3] = system: perfused isolated shinbone of cats; experiment: calcium resorption on the perfused isolated shinbone of cats
Wistar rats = experiment: hypocalcaemic effect: plasma calcium and phosphate contents of the blood, tests on Wistar rats; assay type: in vivo; conditions: for plasma calcium and phosphate contents of the blood: Wistar rats; for hypocalcaemic effect: mammals
[4] = distribution coefficient in Craig counter-current distribution; assay type: physicochemical; conditions: 20° C.; n-butanol+N-acetic acid (1:1) with 250 mg of ammonium acetate per liter

Compound	growth of mouse embryo bones [1]	specific activity [2]	calcium resorption [3]	plasma calcium and phosphate contents of the blood (Wistar rats)	hypocalcaemic effect (Wistar rats)	distribution coefficient k^20 [4]	biological activity [2]
CSCC[C@H](NC(=O)CNC(=O)[C@H](CO)NC(=O)[C@H](Cc1ccccc1)NC(=O)[C@H](CCCNC(=N)N)NC(=O)[C@H](Cc1c[nH]cn1)NC(=O)[C@H](Cc1ccccc1)NC(=O)[C@H](CC(N)=O)NC(=O)[C@H](CC(N)=O)NC(=O)[C@H](CC(C)C)NC(=O)[C@H](CC(N)=O)NC(=O)[C@H](CCCNC(=N)N)NC(=O)[C@H](Cc1c[nH]c2ccccc12)NC(=O)[C@H](Cc1ccc(O)cc1)NC(=O)[C@H](C)NC(=O)[C@H](CO)NC(=O)[C@H](CC(C)C)NC(=O)[C@@H](NC(=O)[C@@H]1CSSC[C@H](N)C(=O)N[C@@H](CO)C(=O)N[C@@H](CC(N)=O)C(=O)N[C@@H](CC(C)C)C(=O)N[C@@H](CO)C(=O)N[C@@H]([C@@H](C)O)C(=O)N1)C(C)C)C(=O)NCC(=O)N[C@@H](Cc1ccccc1)C(=O)NCC(=O)N1CCC[C@H]1C(=O)N[C@@H](CCC(=O)O)C(=O)N[C@H](C(=O)N1CCC[C@H]1C(N)=O)[C@@H](C)O [α-thyrocalcitonin] (H-CSNLSTCVLSAYWRNLNNFHRFSGMGFGPETP-NH2; disulfide 1-7)	increased	200 MRC units per mg of dry substance	diminished	lower	hypocalcaemic effect	0.82	
CC(C)C[C@H](NC(=O)[C@H](CC(N)=O)NC(=O)[C@H](CCCNC(=N)N)NC(=O)[C@H](Cc1c[nH]c2ccccc12)NC(=O)[C@H](Cc1ccc(O)cc1)NC(=O)[C@H](C)NC(=O)[C@H](CO)NC(=O)[C@H](CC(C)C)NC(=O)[C@@H](NC(=O)[C@@H]1CSSC[C@H](N)C(=O)N[C@@H](CO)C(=O)N[C@@H](CC(N)=O)C(=O)N[C@@H](CC(C)C)C(=O)N[C@@H](CO)C(=O)N[C@@H]([C@@H](C)O)C(=O)N1)C(C)C)C(=O)N[C@@H](CC(N)=O)C(=O)N[C@@H](CC(N)=O)C(=O)N[C@@H](Cc1ccccc1)C(=O)N[C@@H](Cc1c[nH]cn1)C(=O)N[C@@H](CCCNC(=N)N)C(=O)N[C@@H](Cc1ccccc1)C(=O)N[C@@H](CO)C(=O)NCC(=O)N[C@@H](CC[S+](C)[O-])C(=O)NCC(=O)N[C@@H](Cc1ccccc1)C(=O)NCC(=O)N1CCC[C@H]1C(=O)N[C@@H](CCC(=O)O)C(=O)N[C@H](C(=O)N1CCC[C@H]1C(N)=O)[C@@H](C)O (stereo partly drawn) [β-thyrocalcitonin] (H-CSNLSTCVLSAYWRNLNNFHRFSG[Met(O)]GFGPETP-NH2; disulfide 1-7)	increased	200 MRC units per mg of dry substance	diminished	lower	hypocalcaemic effect	0.25	
NLNNFHR [Tr2]							without biological activity
CC(C)C[C@@H]1NC(=O)[C@H](CC(N)=O)NC(=O)[C@H](CO)NC(=O)[C@@H](N)CSSC[C@@H](C(=O)N[C@H](C(=O)N[C@@H](CC(C)C)C(=O)N[C@@H](CO)C(=O)N[C@@H](C)C(=O)N[C@@H](Cc2ccc(O)cc2)C(=O)N[C@@H](Cc2c[nH]c3ccccc23)C(=O)N[C@@H](CCCNC(=N)N)C(=O)O)C(C)C)NC(=O)[C@H]([C@@H](C)O)NC(=O)[C@H](CO)NC1=O [Tr1] (H-CSNLSTCVLSAYWR-OH; disulfide 1-7)							without biological activity
